For the experiment, the target named is REV-ERBα LBD (Homo sapiens, UniProt P20393, DEL324-422). As to conditions: read-out: REVERBα (Agonism of REV-ERBα, EC50); FRET assay; 6xHistag-REV-ERBα LBD with FITC-labeled SMRT corepressor peptide.

Chains of the proteins cited; added tags and fusions are not shown. A line that says so, or that is headed by a name, gives the form on record, which may keep a tag or linker. Residues count along the entry.
UniProt P20393, 281-614 with tags or gaps DEL324-422 limits assumed: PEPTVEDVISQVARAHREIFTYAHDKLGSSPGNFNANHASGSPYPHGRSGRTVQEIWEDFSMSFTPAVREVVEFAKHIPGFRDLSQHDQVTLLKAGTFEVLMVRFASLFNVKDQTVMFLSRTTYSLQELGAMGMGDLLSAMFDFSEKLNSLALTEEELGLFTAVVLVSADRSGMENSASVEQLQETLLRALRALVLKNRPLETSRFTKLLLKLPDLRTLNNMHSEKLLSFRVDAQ
UniProt Q9Y618, 2335-2356 partner limits assumed: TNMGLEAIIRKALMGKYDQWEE

The match of structure and compound is tentative.

In general, EC50 refers to the midpoint of the concentration-response curve. In the case of `Cc1ncnc(C(F)F)c1-c1cc2c(cc1F)c([C@H](NS(=O)(=O)C1CC1)C(F)F)cn2CC(C)(C)C`, the EC50 is < 100 nM.

These data come from patent US20260285846A1, “REV-ERB AGONISTS FOR TH17-MEDIATED INFLAMMATORY DISORDERS” (UNIVERSITY OF FLORID RESEARCH FOUNDATION, iNCORPORATED, priority 2021, published 2026).
